# Not every detail of the peptide structures is certain; ends, links or a residue may be inferred. Some compounds share one range, which may span the group rather than tell each member. Peptide text beside a SMILES is read from it.
# Tests used:
# [1] = test system: islet infiltrating T lymphocytes (IITLs); assay: Proliferation (3H-thymidine incorporation) of islet infiltrating T lymphocytes cultured with polypeptide; assay type: cell-based
# [2] = test system: IDDM associated autoantibodies; assay: ELISA of patient and control sera on plate-bound human GAD65 peptides; assay type: binding; details: none of the control sera
# Excerpt: A set of peptides (20-23 amino acids in length, with 5 aa overlaps) that span the human GAD65 molecule were synthesized to determine whether sera from most individuals at risk, pre-IDDM and with IDDM (in contrast to healthy controls) do in fact produce antibodies that differentially recognize GAD65 linear epitopes distributed throughout the molecule.
# Patient sera and most control sera were those used in a previous study (Kaufman, et al., J. Clin. Investigation, supra) All samples were coded and tested in a blind manner. Peptides were synthesized using an automatic instrument (Applied Biosystems, Foster City, Calif.) and standard conditions. Peptides were dissolved in 60 mM sodium bicarbonate buffer (pH 9.6) at 20 ug/ml and 100 ul of each was added to duplicated wells of a 96 well Nunc-Immuno Plate. Peptides were allowed to bind at 4° C. overnight. The plates were then washed three times with PBS+0.1% Tween 20 (wash buffer), after which the plates were pre-absorbed with 3% BSA in sodium bicarbonate buffer for 0.5 hours at 37° C., or at room temperature overnight. The plates were then washed 5 times with the above wash buffer. 100 ul of serum at a 1/300 dilution in PBS+0.1% Tween 20 and 1% BSA was added to each well and antibodies were allowed to bind for 1 hour at 37° C. […] The color development was measured at 410 nm using an ELISA plate reader (ICN, Biomedicals, Costa Mesa, Calif.). […]
# [3] = test system: splenic lymphocytes; assay: Proliferation (3H-thymidine incorporation) of splenic lymphocytes cultured with polypeptide; assay type: cell-based
compound,measurement,setting,value
"CSCC[C@H](NC(=O)CNC(=O)[C@H](CCCCN)NC(=O)[C@H](CCC(=O)O)NC(=O)[C@H](CCCCN)NC(=O)[C@@H](NC(=O)[C@H](CCC(=O)O)NC(=O)[C@@H]1CCCN1C(=O)[C@H](Cc1ccccc1)NC(=O)[C@H](CCSC)NC(=O)[C@H](CCCCN)NC(=O)[C@H](Cc1ccccc1)NC(=O)[C@H](CCCNC(=N)N)NC(=O)[C@H](C)N)C(C)C)C(=O)N[C@@H](C)C(=O)N[C@@H](C)C(=O)O [GAD65 SEQ ID NO:05, ARFKMFPEVKEKGMAA] (H-ARFKMFPEVKEKGMAA-OH)",IITL response relative to culture media or polio polypeptide,[1]; IITL population,9 fold
CC[C@H](C)[C@H](NC(=O)[C@H](CC(=O)O)NC(=O)[C@H](CCC(N)=O)NC(=O)[C@H](Cc1c[nH]cn1)NC(=O)[C@@H](NC(=O)[C@H](C)NC(=O)[C@H](C)NC(=O)[C@@H]1CCCN1C(=O)[C@H](CC(N)=O)NC(=O)[C@H](CO)NC(=O)[C@@H](NC(=O)[C@@H](NC(=O)[C@H](CCSC)NC(=O)[C@H](CCCNC(=N)N)NC(=O)[C@H](Cc1ccccc1)NC(=O)[C@H](Cc1ccccc1)NC(=O)[C@H](CC(N)=O)NC(=O)[C@@H](N)C(C)C)C(C)C)[C@@H](C)CC)[C@@H](C)O)C(=O)N[C@@H](CC(=O)O)C(=O)N[C@@H](Cc1ccccc1)C(=O)O [Peptide 37] (H-VNFFRMVISNPAATHQDIDF-OH),share of patients recognizing the peptide,[2],25-37%
"CSCC[C@H](NC(=O)[C@H](CO)NC(=O)[C@H](CCCCN)NC(=O)[C@@H](N)CCSC)C(=O)N[C@@H](CS)C(=O)N1CCC[C@H]1C(=O)N[C@@H](CCC(N)=O)C(=O)N[C@@H](C)C(=O)N[C@@H](CCC(N)=O)C(=O)N[C@@H](CC(C)C)C(=O)N[C@@H](CCCCN)C(=O)N[C@H](C(=O)N[C@@H](CCCCN)C(=O)N[C@@H](Cc1ccc(O)cc1)C(=O)N[C@@H](CC(C)C)C(=O)O)C(C)C [Poliovirus SEQ ID NO:04, MKSMCPQAQLKVKYL, reference compound] (H-MKSMCPQAQLKVKYL-OH)",^3 THYMIDINE INCORPORATION (cpm) BY LYMPHOID CELL POPULATION IITLs,[1],900
same,^3 THYMIDINE INCORPORATION (cpm) BY LYMPHOID CELL […],[3],"22,500"

# Reference: patent US5998366A, “Method for ameliorating glutamic acid decarboxylase associated autoimmune disorders” (The Regents of the University of California, priority 1997, dated 1999)
